Experimental data: PubChem BioAssay AID1508588 (Peter MacCallum Cancer Centre, 2020)
Purpose: 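Genome-wide search for knock-downs that heighten vemurafenib action in melanoma cells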 (primary screen). Cell system: human WM266.4 melanoma cells (BRAF V600 mutant). Reagents: siRNA pool against human genes, 40 nM. Duration: 96 h from transfection to read-out. Conditions: vemurafenib 300 nM (about IC25), added 48 h after transfection, for 48 h; comparison arm got DMSO vehicle only. Read-out: 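Ratios to non-targeting siRNA for cell gain, counted as DAPI nuclei after minus before drug and averaged over two replicates, and for absorbance-read medium lactate per cell; both binned into fold-change classes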. Reading the numbers: cell gain with vemurafenib: higher = more cell gain than with non-targeting siRNA; lactate per cell with vemurafenib: higher = more lactate made per cell. Rule for the call: 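Enhancement is called by pairing each knock-down's vehicle-arm and drug-arm fold-change classes for viability or glycolysis; which class combinations qualify is not given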. Meaning of the calls: active = enhances vemurafenib effect; inactive = no enhancement seen.
This is one part, drawn at random, of about 18,000 reagents tested. 790 of all reagents (4.4%) were called active. 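Calls rest on a combination of fold-change classes in drug and vehicle arms, not all shown here.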 Entries without a mark were called inactive. Reagent sequences are not shown.

Target gene	cell gain with vemurafenib	lactate per cell with vemurafenib
CCNC	0.54	1.37
IHO1	1.08	1.07
ALDH1A2	0.51	0.54
MYLIP	0.46	1
TRAPPC6A	0.88	0.6
BTG2	0.85	1.03
GALNT9	0.57	0.8
GTF2E1	0.53	0.98
PLXDC1	0.79	0.22
IL6ST	0.25	0.22
OR1L4	0.12	1.6
FZD4	0.87	0.73
CIMAP1A	0.67	0.5
RLN1	0.85	0.8
NRROS	0.63	1.97
MICALL1	1.23	0.88
BCAP29	0.39	1.14
ITGA11	0.46	0.55
AFF2	0.85	1.1
PELI3	0.89	0.54
SYT12	0.74	1.15
ZNF468	0.91	0.98
NUDT16L1	0.42	0.79
UPB1	0.42	1
CHST15	0.56	0.43
FAM180A	0.36	1.92
SGF29	0.35	1.8
RNF40	0.78	0.95
TRPA1	1.1	0.6
POGZ	0.81	0.85
SRD5A3	0.79	0.58
SOSTDC1	0.78	2
PPP1R13L	0.53	1.16
ATOX1	0.69	0.85
CTNND2	0.42 (active)	0.57
C1orf198	0.38	0.89
ZNF155	0.61	0.68
NLRC4	0.4	1.57
JUP	0.98	0.7
INPP5E	0.39	0.53
SRP14	0.11	2.64
LIG1	0.52	1.98
COX20	0.19	1.96
ITGA2B	0.47	1.26
GHRH	0.41	1.4
PGAP6	0.08	1.37
USH2A	0.3	0.58
ELMO2	0.22 (active)	0.3
ZNF32	0.41	0.9
C11orf24	0.68 (active)	0.48
MAP3K19	0.51	1.08
FAM53A	0.56	0.99
PTDSS1	0.85	1.01
GALNT7	0.91	0.54
PRR27	0.79	1
TBX15	0.91	1.6
ACSM5	0.24	1.07
MLLT10	1.22	0.54
C9orf72	0.43	1.08
CHCHD10	1.05 (active)	0.53
KCNB1	0.57	0.2
TPM1	0.7	0.9
CLCA1	0.22	0.78
SLC15A2	0.96	0.68
FMR1	0.12	1.06
C3orf52	0.43	0.39
ARHGAP26	0.46	0.96
KRTAP1-5	-0.22	1.27
NDUFAF3	0.44	1.22
NAV3	1.11	0.82
H2BC7	0.76	0.99
TPMT	0.99	0.44
BEND6	0.28	1.29
TELO2	0.43	1.3
GLIS2	0.65	0.85
TOP2B	0.48	1.98
HK3	0.26	1.1
WDR31	0.59	0.7
RGP1	0.34	1.96
GRM3	0.85	0.55
AKIP1	0.07	1.7
HTRA1	0.07	4.22
HMGB1	0.62	1.46
RASA1	0.25	1.35

Reprinted from the listing for reference:
Target gene	cell gain with vemurafenib	lactate per cell with vemurafenib
ITGA11	0.46	0.55
AFF2	0.85	1.1
PELI3	0.89	0.54
SYT12	0.74	1.15
ZNF468	0.91	0.98
NUDT16L1	0.42	0.79
UPB1	0.42	1
CHST15	0.56	0.43
FAM180A	0.36	1.92
SGF29	0.35	1.8
RNF40	0.78	0.95
TRPA1	1.1	0.6
